No constants are given. Whether binding was seen depends on the method and setting. Binding seen in cells or lysates may run through a third protein.

What all share (test): co-IP; LUMIER assay: protein A fusion (bait) and Renilla luciferase fusion (prey) co-transfected in HEK-293T cells, lysed after 24 h (PBS pH 7.4, 1% Triton X-100, 0.1% BSA, 1 mM DTT, benzonase), bait precipitated on anti-protein A magnetic beads for 90 min at 4 °C, six washes, bound luciferase activity read; robust Z-scores; in quadruplicate
Assay [1] concerns the target T1, MNV NS3 (murine norovirus MNV-1 (strain CW1)) (UniProt Q80J95).
T1 sequence: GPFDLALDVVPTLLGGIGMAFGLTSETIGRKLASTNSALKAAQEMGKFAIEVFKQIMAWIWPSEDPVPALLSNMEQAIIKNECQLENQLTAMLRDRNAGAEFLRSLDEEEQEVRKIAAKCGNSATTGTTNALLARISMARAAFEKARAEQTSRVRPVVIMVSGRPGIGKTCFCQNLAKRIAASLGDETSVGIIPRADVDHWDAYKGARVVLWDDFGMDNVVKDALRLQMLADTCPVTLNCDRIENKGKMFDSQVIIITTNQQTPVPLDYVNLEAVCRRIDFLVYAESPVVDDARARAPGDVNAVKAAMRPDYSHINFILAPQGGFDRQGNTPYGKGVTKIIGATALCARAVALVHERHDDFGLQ

For assay [2], the target named is T2, MNV NS1/2 (murine norovirus MNV-1 (strain CW1)) (UniProt Q80J95).
T2 sequence: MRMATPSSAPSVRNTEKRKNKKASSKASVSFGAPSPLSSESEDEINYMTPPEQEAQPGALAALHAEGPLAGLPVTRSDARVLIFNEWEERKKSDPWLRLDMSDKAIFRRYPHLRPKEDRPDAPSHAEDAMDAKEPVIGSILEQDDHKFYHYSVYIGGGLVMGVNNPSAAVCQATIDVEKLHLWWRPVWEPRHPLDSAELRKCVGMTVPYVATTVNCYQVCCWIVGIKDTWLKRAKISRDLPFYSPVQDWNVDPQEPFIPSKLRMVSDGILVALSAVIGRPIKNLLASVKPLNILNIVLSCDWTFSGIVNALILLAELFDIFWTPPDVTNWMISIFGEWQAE

For assay [3], the target named is T3, MNV NS7 (murine norovirus MNV-1 (strain CW1)) (UniProt Q80J95).
T3 sequence: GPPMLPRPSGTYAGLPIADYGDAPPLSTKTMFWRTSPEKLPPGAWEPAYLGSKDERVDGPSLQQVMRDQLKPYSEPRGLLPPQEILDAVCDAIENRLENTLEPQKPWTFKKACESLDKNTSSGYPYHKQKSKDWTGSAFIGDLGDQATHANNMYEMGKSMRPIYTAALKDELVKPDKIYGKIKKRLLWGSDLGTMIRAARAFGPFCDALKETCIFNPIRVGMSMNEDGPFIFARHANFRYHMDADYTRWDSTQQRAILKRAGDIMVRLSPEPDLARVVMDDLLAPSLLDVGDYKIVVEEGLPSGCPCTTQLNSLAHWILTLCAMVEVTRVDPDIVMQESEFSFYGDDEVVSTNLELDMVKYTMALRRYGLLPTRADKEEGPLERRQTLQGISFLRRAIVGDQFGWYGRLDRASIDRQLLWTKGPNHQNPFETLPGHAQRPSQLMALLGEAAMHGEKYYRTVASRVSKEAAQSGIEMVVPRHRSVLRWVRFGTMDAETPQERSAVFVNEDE

Assay [4] deals with T4, MNV NS4 (murine norovirus MNV-1 (strain CW1)) (UniProt Q80J95).
T4 sequence: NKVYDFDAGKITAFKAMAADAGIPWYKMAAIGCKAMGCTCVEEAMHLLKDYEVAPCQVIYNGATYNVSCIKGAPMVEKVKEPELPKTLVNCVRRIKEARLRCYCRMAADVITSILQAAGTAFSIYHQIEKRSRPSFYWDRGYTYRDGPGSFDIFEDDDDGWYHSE

Assay [5] has as its target MNV minor capsid protein VP2 (murine norovirus MNV-1 (strain CW1)).

As to “MNV minor capsid protein VP2 (murine norovirus MNV-1 (strain CW1))”, the binding entry in assay [1], in assay [2], in assay [3] and in assay [4] was “no binding” in each case.

B1: MNV NS6 (enzyme, UniProt Q80J95 995-1177)
chain: APVSIWSRVVQFGTGWGFWVSGHVFITAKHVAPPKGTEIFGRKPGDFTVTSSGDFLKYYFTSAVRPDIPAMVLENGCQEGVVASVLVKRASGEMLALAVRMGSQAAIKIGSAVVHGQTGMLLTGSNAKAQDLGTIPGDCGCPYVYKKGNTWVVIGVHVAATRSGNTVIAATHGEPTLEALEFQ
Consider B1, for which, in assay [5], the binding entry was “no binding”.

(Values after article PMC6422069.)
